Measurements taken from patent publication US20070105940A1, “Method for treating pain” (ALLERGAN, INC., priority 2005, published 2007).

Columns and labels:
[1] = system: nociceptive response to formalin injected into the rat paw; assay: Nociceptive response to formalin injected into the rat paw; format: in vivo
[2] = system: OFF cells of the rostral ventromedial medulla; assay: Inhibitory effect of formalin on OFF cells of the rostral ventromedial medulla; format: in vivo, rat; conditions: FIG. 2B

Question: How did the “effect on the anti-hyperalgesic effect of AA-5-HT” value ([1]; AA-5-HT 4 μg/rat intra-PAG, AM251 (nmol/rat), capsazepine 6 nmol/rat) turn out when Cc1c(C(=O)NN2CCCCC2)nn(-c2ccc(Cl)cc2Cl)c1-c1ccc(I)cc1 [AM251] was run?
Answer: counteracted

Question: And the “effect on the action of AA-5-HT injected into the paw” value ([1]; AA-5-HT 1 mg/rat s.c. into the paw)?
Answer: counteracted

Question: And the “effect on the action of AA-5-HT on OFF cells” value [2]?
Answer: reversed
